Some results were stated once for a whole list of compounds, not compound by compound.
Tests used:
Assay type in all cases: in vivo
Erysiphe graminis = assay: Action against Erysiphe graminis/barley (powdery mildew on barley), Example B-4; conditions: barley plants cv. Express, spray 0.02% active ingredient, inoculated one day after application, assessed after 6 days incubation
Botrytis cinerea [1] = assay: Action against Botrytis cinerea/apple (Botrytis on apple fruits), Example B-5; conditions: apple fruit cv. Golden Delicious, 30 μl droplets in drilled holes, 0.002% active ingredient, assessed after 7 days at 22° C.
Botrytis cinerea [2] = assay: Action against Botrytis cinerea/tomato (Botrytis on tomatoes), Example B-7; conditions: tomato plants cv. Roter Gnom, spray 0.002% active ingredient, inoculated two days after application, assessed after 4 days incubation
Podosphaera Leucotricha = assay: Action against Podosphaera leucotricha/apple (powdery mildew on apple), Example B-2; conditions: apple seedlings cv. McIntosh, spray 0.002% active ingredient, inoculated one day after application, assessed after 12 days incubation
Septoria Nodorum = assay: Action against Septoria nodorum/wheat (Septoria leaf spot on wheat), Example B-9; conditions: wheat plants cv. Arina, spray 0.02% active ingredient, inoculated one day after application, assessed 11 days after inoculation
Puccinia Recondita = assay: Action against Puccinia recondita/wheat (brownrust on wheat), Example B-1; conditions: wheat plants cv. Arina, spray 0.02% active ingredient, inoculated one day after application, assessed 10 days after inoculation
Botrytis cinerea [3] = assay: Action against Botrytis cinerea/grape (Botrytis on grapes), Example B-6; conditions: grape seedlings cv. Gutedel, spray 0.002% active ingredient, inoculated two days after application, assessed after 4 days incubation
Venturia Inaegualis = assay: Action against Venturia inaequalis/apple (scab on apple), Example B-3; conditions: apple seedlings cv. McIntosh, spray 0.02% active ingredient, inoculated one day after application
Pyrenophora Teres = assay: Action against Pyrenophora teres/barley (net blotch on barley), Example B-8; conditions: barley plants cv. Express, spray 0.002% active ingredient, inoculated two days after application, assessed 4 days after inoculation

Measured: infestation (strong efficacy)

Cn1cc(C(=O)Nc2ccsc2-c2ccncc2F)c(C(F)(F)F)c1 [Compound 2.40]
< 20%: all assays above

Cn1cc(C(=O)Nc2ncncc2-c2ccc(F)cc2)c(C(F)(F)F)c1 [Compound 8.5]
< 20%: all assays above

CC1CCC(c2sccc2NC(=O)c2cn(C)cc2C(F)(F)F)CC1 (stereo not drawn) [Compound 2.12]
< 20%: all assays above

Cn1cc(C(=O)Nc2ncncc2-c2ccccc2)c(C(F)(F)F)c1 [Compound 8.1]
< 20%: all assays above

Cn1cc(C(=O)Nc2cnccc2-c2ccc(Cl)cc2)c(C(F)(F)F)c1 [Compound 6.10]
< 20%: all assays above

Cn1cc(C(=O)Nc2ccsc2-c2cnoc2)c(C(F)(F)F)c1 [Compound 2.23]
< 20%: all assays above

Cn1cc(C(=O)Nc2snnc2-c2ccc(Cl)cc2)c(C(F)(F)F)c1 [Compound 4.10]
< 20%: all assays above

Cn1cc(C(=O)Nc2nccnc2-c2ccc(Cl)cc2)c(C(F)(F)F)c1 [Compound 7.2]
< 20%: all assays above

Cn1cc(C(=O)Nc2ccsc2-c2cccnc2O)c(C(F)(F)F)c1 [Compound 2.49]
< 20%: all assays above

Cn1cc(C(=O)Nc2ncncc2-c2ccc(Cl)cc2)c(C(F)(F)F)c1 [Compound 8.2]
< 20%: all assays above

Cn1cc(C(=O)Nc2ccncc2-c2ccc(F)cc2)c(C(F)(F)F)c1 [Compound 5.12]
< 20%: all assays above
